Measurements published in PMC10565642.
These are yes or no findings as the source states them, for the method shown. In cells and extracts the contact can be indirect. A yes stands for co-enrichment or nearness to the bait. Other partners may have been found.

Target: T1, NLR family pyrin domain containing 1 (NLRP1), endogenous (human (endogenous in K562 and M-PBMCs)) (UniProt Q9C000)
T1 sequence: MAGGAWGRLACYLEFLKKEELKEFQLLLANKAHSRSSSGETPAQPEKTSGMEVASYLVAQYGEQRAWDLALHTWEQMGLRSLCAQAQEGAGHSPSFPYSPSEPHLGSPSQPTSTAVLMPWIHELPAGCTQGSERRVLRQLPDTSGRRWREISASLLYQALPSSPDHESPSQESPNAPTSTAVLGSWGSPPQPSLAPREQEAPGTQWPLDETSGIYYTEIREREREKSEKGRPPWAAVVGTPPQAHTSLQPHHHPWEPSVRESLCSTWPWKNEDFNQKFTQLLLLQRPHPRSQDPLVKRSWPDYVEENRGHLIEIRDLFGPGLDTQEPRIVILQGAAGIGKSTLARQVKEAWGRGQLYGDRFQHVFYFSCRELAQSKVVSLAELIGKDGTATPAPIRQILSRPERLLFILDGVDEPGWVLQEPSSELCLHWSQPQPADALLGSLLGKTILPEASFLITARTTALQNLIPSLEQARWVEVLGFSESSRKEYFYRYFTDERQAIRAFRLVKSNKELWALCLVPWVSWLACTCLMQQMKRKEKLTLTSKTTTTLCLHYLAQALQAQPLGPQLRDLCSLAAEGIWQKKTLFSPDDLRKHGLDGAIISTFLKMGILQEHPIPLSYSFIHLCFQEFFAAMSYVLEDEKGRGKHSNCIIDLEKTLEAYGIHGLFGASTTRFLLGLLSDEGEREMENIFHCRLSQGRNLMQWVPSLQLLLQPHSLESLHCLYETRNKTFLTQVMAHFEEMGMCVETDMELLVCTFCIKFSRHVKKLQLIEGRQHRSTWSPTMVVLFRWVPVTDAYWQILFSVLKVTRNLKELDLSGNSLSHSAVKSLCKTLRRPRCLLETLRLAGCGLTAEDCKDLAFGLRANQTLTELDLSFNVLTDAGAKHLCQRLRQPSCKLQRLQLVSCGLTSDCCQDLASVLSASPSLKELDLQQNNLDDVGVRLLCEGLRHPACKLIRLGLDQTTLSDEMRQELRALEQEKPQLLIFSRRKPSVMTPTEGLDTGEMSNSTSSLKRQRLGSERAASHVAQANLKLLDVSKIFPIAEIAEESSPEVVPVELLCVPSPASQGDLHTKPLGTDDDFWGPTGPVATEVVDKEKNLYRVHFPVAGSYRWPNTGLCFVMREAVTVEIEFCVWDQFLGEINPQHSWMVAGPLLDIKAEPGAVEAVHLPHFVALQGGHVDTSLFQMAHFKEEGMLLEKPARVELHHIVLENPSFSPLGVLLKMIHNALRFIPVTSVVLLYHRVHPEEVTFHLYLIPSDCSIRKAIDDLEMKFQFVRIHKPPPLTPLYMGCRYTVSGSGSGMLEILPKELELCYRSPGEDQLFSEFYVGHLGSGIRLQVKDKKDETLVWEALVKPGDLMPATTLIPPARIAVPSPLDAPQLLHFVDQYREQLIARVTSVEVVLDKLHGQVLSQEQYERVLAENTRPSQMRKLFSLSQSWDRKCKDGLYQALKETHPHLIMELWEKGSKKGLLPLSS
Assay: affinity purification with mass spectrometry; endogenous NLRP1 immunoprecipitated from K562 cells after erythroid differentiation; eluates on SDS-PAGE, in-gel trypsin digest, LC-MS/MS; three biological replicates

B1: LRR Binding FLII Interacting Protein 1 (LRRFIP1), endogenous (protein, UniProt Q32MZ4 1-808)
chain: MTSPAAAQSREIDCLSPEAQKLAEARLAAKRAARAEAREIRMKELERQQKEEDSERYSRRSRRNTSASDEDERMSVGSRGSLRVEERPEKDFTEKGSRNMPGLSAATLASLGGTSSRRGSGDTSISIDTEASIREIKELNELKDQIQDVEGKYMQGLKEMKDSLAEVEEKYKKAMVSNAQLDNEKTNFMYQVDTLKDMLLELEEQLAESRRQYEEKNKEFEREKHAHSILQFQFAEVKEALKQREEMLEKHGIILNSEIATNGETSDTLNNVGYQGPTKMTKEELNALKSTGDGTLGRASEVEVKNEIVANVGKREILHNTEKEQHTEDTVKDCVDIEVFPAGENTEDQKSSEDTAPFLGTLAGATYEEQVQSQILESSSLPENTVQVESNEVMGAPDDRTRTPLEPSNCWSDLDGGNHTENVGEAAVTQVEEQAGTVASCPLGHSDDTVYHDDKCMVEVPQELETSTGHSLEKEFTNQEAAEPKEVPAHSTEVGRDHNEEEGEETGLRDEKPIKTEVPGSPAGTEGNCQEATGPSTVDTQNEPLDMKEPDEEKSDQQGEALDSSQKKTKNKKKKNKKKKSPVPVETLKDVKKELTYQNTDLSEIKEEEQVKSTDRKSAVEAQNEVTENPKQKIAAESSENVDCPENPKIKLDGKLDQEGDDVQTAAEEVLADGDTLDFEDDTVQSSGPRAGGEELDEGVAKDNAKIDGATQSSPAEPKSEDADRCTLPEHESPSQDISDACEAESTERCEMSEHPSQTVRKALDSNSLENDDLSAPGREPGHFNPESREDTRGGNEKGKSKEDCTMS
Question: With B1 as the binder, how does the binding read?
Answer: Its binding is “binds”.
